The subject of the assay is Ras-CVLS processing in COS monkey kidney cells. The experiment in a line: COS cell assay: Ras-CVLS processing (Western blot). It counts as cell-based. The settings on record: read-out: Inhibition of Ras Processing IC50. (In western blotting, separated proteins are transferred to a membrane and probed.)

For part of its entries the source gives two or more results. They are shown here; other results are not. The source may hold further records. The records of an entry seem to repeat one measurement on other runs, samples or individuals.

Broadly, the IC50 is the midpoint of a concentration-inhibition curve. In the case of `O=C(Cc1ccncc1)N1CCC(=C2c3ccc(Cl)cc3C=Cc3cccnc32)CC1` [Example 307], the half-inhibitory concentration (IC50) was 4.6 µM and 850 nM.

The values are drawn from patent US20030055065A1, “Tricyclic amide and urea compounds useful for inhibition of G-protein function and for treatment of proliferative diseases” (priority 1993, published 2003).
